Assay results from US20090036368A1, “Therapeutic Combination” (HAMLET PHARMA AB, priority 2005, published 2009).

System: Jurkat cells
Assay: subG1 population / DNA fragmentation by flow cytometry after PI staining
Type: cell-based
Conditions: pre-treated with TSA 100 ng/ml or SAHA 2.5 μM for 2 hours, HAMLET 1 hour
Procedure: Cell Cycle Analysis by cytometry—Cells were harvested, washed with PBS and then fixed in suspension in 75% cold ethanol at 4° C. for 2 hours at least. The samples were then centrifuged, washed with PBS, and treated with 0.25% triton X-100 for 10 minutes at room temperature. The cells were washed again, resuspended in 2.5 μg/ml of PI and 250 μg/ml Rnase A in PBS, and incubated at 4° C. overnight prior to measurement. Cellular fluorescence was measured using the Facscalibur flow cytometry (Becton Dickinson, San Jose, Calif.). The simple-cell populations were determinated on the basis of their fluorescence-intensity values FL2-A and FL2-W.
The effects of HAMLET on DNA fragmentation were compared between untreated cells and those pre-treated with TSA to increase acetylation. Sub G0/G1 DNA fragmentation was quantified by flow cytometry using the methodology as described in Example 1.
Cells in medium were used as controls.

O=C(CCCCCCC(=O)Nc1ccccc1)NO [SAHA, suberoylanilide hydroxamic acid]
HAMLET-induced DNA fragmentation after HDAC inhibitor pre-treatment: enhanced
